Test results taken from PubChem BioAssay AID540276 (National Center for Advancing Translational Sciences (NCATS), 2011).
Hit rate of the full screen: of about 300,000 compounds, about 5,400 (1.8%) were called active. Inconclusive means that the source gave no clear call. Such entries were picked first, then a sample of the others. Calls follow the shape of the full dose curve; tested in HEK293 cells. Potencies beside an inconclusive call are fits to weak or partial responses and may not hold up.

Assay: qHTS for inhibitors of binding or entry into cells for Marburg Virus
Details: Marburg virus pseudotyped entry inhibition, cell reporter; activity change, negative = inhibition: at 37.8 µM (top of the series) unless noted
% is scaled to controls: 0 for no effect and ±100 for the full control effect; potency is read from the fitted curve at half-maximal effect.

With `CC1Cc2ccccc2N1C(=O)COC(=O)c1c2c(nc3ccccc13)CCCCC2` (centres undefined) as the compound, how does the Potency read?
Its Potency is inconclusive: 15.8 µM [inhibitor, partial curve, poor fit].

For `COC(=O)C1SCCN1S(=O)(=O)c1ccc(Cl)cc1` (centres undefined), which Potency is on record?
Its Potency is inconclusive: 0.282 µM [inhibitor, single point].

With `O=C(CN1C(=O)c2ccccc2C1=O)Nc1ccc(-c2nc3ccccc3o2)cc1` as the compound, how does the “activity change, negative = inhibition” value read?
The value was inactive: -2.91%.

For `CC(=O)Nc1c(Cl)cc2c(c1Cl)Cc1cc(N)ccc1-2`, which “activity change, negative = inhibition” value is on record?
Its value is inactive: 11.9%.

With `CCCC(=O)n1nc(-c2ccc(C)cc2)nc1NCc1ccco1` as the compound, how does the Potency read?
The Potency was inconclusive: 5.62 µM [activator, single point].

For `COC(=O)c1ccc(C(=O)NC(=S)Nc2ccc3nc(SC)sc3c2)cc1`, which Potency is on record?
The Potency was inconclusive: 2.51 µM [inhibitor, partial curve, poor fit].

With `O=C(NC12CC3CC(CC(C3)C1)C2)c1ccc(-c2cccc(Cl)c2)o1` as the compound, how does the “activity change, negative = inhibition” value read?
Its value is inactive: -24.6%.

Which Potency does the source give for `O=C(Nc1cccc2ccccc12)/C(=C/c1cccc([N+](=O)[O-])c1)NC(=O)c1cccs1` here?
Its Potency is inconclusive: 10 µM [inhibitor, partial curve, poor fit].

Which Potency does the source give for `Cc1[nH]c2ccccc2c1C(c1ccccn1)N1CCC(C)CC1` (centres undefined) here?
Its Potency is inconclusive: 35.5 µM [inhibitor, single point].

Which “activity change, negative = inhibition” value does the source give for `CC1CCc2c(sc(NC(=O)Cn3nnc(-c4ccc(C(F)(F)F)cc4)n3)c2C#N)C1` (centres undefined) here?
The value was inactive: 5.96% [at 46.1 µM].

Which “activity change, negative = inhibition” value does the source give for `Cc1cccc(/C(N)=N/OC(=O)c2ccncc2)c1` here?
Its value is inactive: -26.8% [at 46.1 µM].

With `Clc1c(CSc2nc3ccccc3o2)nc2sccn12` as the compound, how does the Potency read?
The Potency was inconclusive: 32.6 µM [inhibitor, single point].

With `CCOC(=O)c1cnc2c(cnn2CC)c1NN=C(C)C` as the compound, how does the Potency read?
Its Potency is inconclusive: 5.62 µM [inhibitor, single point].

With `CCCCn1c(O)c(C(CC)=NCc2cccnc2)c(=O)[nH]c1=O` as the compound, how does the “activity change, negative = inhibition” value read?
Its value is inactive: -2.5%.

With `COc1ccc(CNC(=O)c2cc(=O)c3ccc(C)c(C)c3o2)cc1` as the compound, how does the Potency read?
The Potency was inconclusive: 35.5 µM [inhibitor, partial curve, poor fit].

For `COc1ccc([N+](=O)[O-])cc1NC(=O)C(C)OC(=O)/C=C/c1ccco1` (centres undefined), which “activity change, negative = inhibition” value is on record?
The value was inactive: 13.5%.

With `CCOC(=O)CSC1=Nc2ccccc2C2=NC(CC(=O)NCc3ccc4c(c3)OCO4)C(=O)N12` (centres undefined) as the compound, how does the “activity change, negative = inhibition” value read?
The value was inactive: 7.5%.

Which Potency does the source give for `c1nc(SSc2ncnc3nc[nH]c23)c2[nH]cnc2n1` here?
Its Potency is inconclusive: 1.58 µM [inhibitor, full curve, poor fit].

Which Potency does the source give for `CC(C)(Cc1ccc(O)cc1)NC(=O)c1ccccc1` here?
The Potency was inconclusive: 1.26 µM [inhibitor, full curve, poor fit].

For `CCc1nnc(NC(=O)CSc2ncnc3c2cnn3-c2ccc(OC)cc2)s1`, which Potency is on record?
Its Potency is inconclusive: 0.259 µM [inhibitor, full curve, poor fit].

With `O=C(Nc1nc(-c2cccs2)cs1)c1ccco1` as the compound, how does the Potency read?
The Potency was inconclusive: 29.1 µM [inhibitor, single point].

For `COCCn1nnnc1CN(CCc1ccc(OC)c(OC)c1)Cc1cc2ccc(C)cc2[nH]c1=O`, which Potency is on record?
Its Potency is “inactive”.

For `C=CCn1c(SCc2c(C)noc2C)nc2sc3c(c2c1=O)CCC(C)C3` (centres undefined), which Potency is on record?
Its Potency is inconclusive: 7.08 µM [inhibitor, partial curve, poor fit].

Which Potency does the source give for `CCN(C(=O)CN1CCOCC1)C1(C)C(=O)c2ccccc2C1=O` here?
The Potency was inconclusive: 29.1 µM [activator, single point].

Which “activity change, negative = inhibition” value does the source give for `CCOc1ccccc1-c1noc(CSc2nnc(-c3ccccc3)n2-c2cccc(C)c2)n1` here?
The value was inactive: -17.9% [at 46.1 µM].

With `COc1ccc(/C=C/C(=O)OCC(=O)Nc2ccc(C)cc2)cc1S(=O)(=O)N1CCOCC1` as the compound, how does the “activity change, negative = inhibition” value read?
Its value is inactive: -11.3%.

Which Potency does the source give for `COc1ccc(S(=O)(=O)N(C)c2nc3ccccc3n3c(CC(C)C)nnc23)cc1` here?
Its Potency is inconclusive: 7.08 µM [inhibitor, full curve, poor fit].

With `OCc1ccccc1OCCCN1CCC(Cc2ccccc2)CC1` as the compound, how does the Potency read?
The Potency was inconclusive: 12.6 µM [inhibitor, partial curve, poor fit].

With `CCOCCn1c(N2CCN(c3ccc(OC)cc3)CC2)nc2c1c(=O)[nH]c(=O)n2C` as the compound, how does the activity change, negative = inhibition read?
The activity change, negative = inhibition was inconclusive: 7.01% [activator] [at 46.1 µM].

For `O=C(Cc1ccccc1)N1CCC(c2nc(-c3ccc(F)cc3)no2)CC1`, which Potency is on record?
Its Potency is inconclusive: 23.1 µM [inhibitor, single point].

For `CCOC(=O)c1c(Nc2cccc(C(=O)OC)c2)nnc(-c2ccccc2)c1-c1ccccc1`, which Potency is on record?
The Potency was inconclusive: 5.01 µM [inhibitor, single point].

With `O=C(OCc1ccc(F)cc1)c1cccnc1Cl` as the compound, how does the “activity change, negative = inhibition” value read?
Its value is inactive: 8.79% [at 46.1 µM].

Which Potency does the source give for `CCCCCn1c(NC(=O)c2ccco2)c(S(=O)(=O)c2ccc(C)cc2)c2nc3ccccc3nc21` here?
The Potency was inconclusive: 7.3 µM [inhibitor, partial curve].

Which “activity change, negative = inhibition” value does the source give for `O=C(O)/C=C/c1cn(-c2ccccc2)nc1-c1cccc([N+](=O)[O-])c1` here?
Its value is inactive: 0%.

For `O=C1CCCCC1c1cccc2ccccc12` (centres undefined), which Potency is on record?
Its Potency is inconclusive: 0.631 µM [inhibitor, partial curve, poor fit].

For `COC(=O)C1C(C(=O)O)C2(Cl)C(Cl)=C(Cl)C1(Cl)C2(Cl)Cl` (centres undefined), which Potency is on record?
The Potency was inconclusive: 3.16 µM [inhibitor, single point].

Which “activity change, negative = inhibition” value does the source give for `Cc1cccc(NC(=O)CCNS(=O)(=O)c2cc(Br)cnc2N)c1C` here?
Its value is inactive: 4.15% [at 46.1 µM].

With `CCN1CCN(c2ncc3c(n2)CC(c2cc(OC)c(OC)c(OC)c2)CC3=O)CC1` (centres undefined) as the compound, how does the Potency read?
The Potency was inconclusive: 0.517 µM [inhibitor, partial curve, poor fit].

With `O=C1CN(C(=O)/C=C/c2ccc(Cl)cc2)c2ccccc2N1` as the compound, how does the Potency read?
The Potency was inconclusive: 11.2 µM [inhibitor, partial curve, poor fit].

Which Potency does the source give for `COc1ccc(OC)c(C2c3c(-c4ccc(Br)cc4)n[nH]c3C(=O)N2c2ccc(Cl)cc2)c1` (centres undefined) here?
Its Potency is inconclusive: 6.31 µM [inhibitor, single point].

Which “activity change, negative = inhibition” value does the source give for `CCOc1ccc(NC(=O)c2ccc3c(SCC(=O)O)c4c(nc3c2)CCC4)cc1` here?
Its value is inactive: 26.4% [at 46.1 µM].

With `CN1CCCN(C(c2ccccc2)c2ccc(Cl)cc2)CC1` (centres undefined) as the compound, how does the Potency read?
The Potency was inconclusive: 18.4 µM [inhibitor, partial curve, poor fit].

For `CC1=Nc2ccccc2/C1=C/c1sc(=N)n(-c2nccs2)c1O`, which Potency is on record?
Its Potency is active: 10 µM.

Which Potency does the source give for `Cc1ccc(C(=O)C(C(=O)/C=C/c2ccccc2)=C2SCCCS2)cc1` here?
The Potency was inconclusive: 17.8 µM [inhibitor, partial curve, poor fit].
